Laboratory results from PMC6721388.
No constants are given. Whether binding was seen depends on the method and setting. Binding seen in cells or lysates may run through a third protein. Some results given as binding are weak or reduced against the parent protein; the word gives no strength.

Chains of the proteins cited; added tags and fusions are not shown.
UniProt O43524: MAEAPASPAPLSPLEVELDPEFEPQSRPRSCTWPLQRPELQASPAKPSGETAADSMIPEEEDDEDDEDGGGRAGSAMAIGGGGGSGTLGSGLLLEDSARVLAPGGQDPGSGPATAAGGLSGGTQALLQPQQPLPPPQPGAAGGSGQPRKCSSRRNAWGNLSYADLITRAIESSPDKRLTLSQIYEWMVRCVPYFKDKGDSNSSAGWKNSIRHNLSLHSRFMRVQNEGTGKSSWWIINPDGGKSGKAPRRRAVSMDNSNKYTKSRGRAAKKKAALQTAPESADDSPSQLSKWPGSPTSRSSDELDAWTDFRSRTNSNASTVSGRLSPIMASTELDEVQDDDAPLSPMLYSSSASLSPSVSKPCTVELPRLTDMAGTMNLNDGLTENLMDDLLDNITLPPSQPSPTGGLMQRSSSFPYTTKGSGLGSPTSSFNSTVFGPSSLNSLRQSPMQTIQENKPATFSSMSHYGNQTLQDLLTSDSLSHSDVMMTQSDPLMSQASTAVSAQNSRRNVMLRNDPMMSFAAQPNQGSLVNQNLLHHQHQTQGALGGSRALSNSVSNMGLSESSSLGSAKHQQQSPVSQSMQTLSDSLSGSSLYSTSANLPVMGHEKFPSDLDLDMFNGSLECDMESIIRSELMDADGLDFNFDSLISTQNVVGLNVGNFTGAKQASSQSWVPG
UniProt Q09472: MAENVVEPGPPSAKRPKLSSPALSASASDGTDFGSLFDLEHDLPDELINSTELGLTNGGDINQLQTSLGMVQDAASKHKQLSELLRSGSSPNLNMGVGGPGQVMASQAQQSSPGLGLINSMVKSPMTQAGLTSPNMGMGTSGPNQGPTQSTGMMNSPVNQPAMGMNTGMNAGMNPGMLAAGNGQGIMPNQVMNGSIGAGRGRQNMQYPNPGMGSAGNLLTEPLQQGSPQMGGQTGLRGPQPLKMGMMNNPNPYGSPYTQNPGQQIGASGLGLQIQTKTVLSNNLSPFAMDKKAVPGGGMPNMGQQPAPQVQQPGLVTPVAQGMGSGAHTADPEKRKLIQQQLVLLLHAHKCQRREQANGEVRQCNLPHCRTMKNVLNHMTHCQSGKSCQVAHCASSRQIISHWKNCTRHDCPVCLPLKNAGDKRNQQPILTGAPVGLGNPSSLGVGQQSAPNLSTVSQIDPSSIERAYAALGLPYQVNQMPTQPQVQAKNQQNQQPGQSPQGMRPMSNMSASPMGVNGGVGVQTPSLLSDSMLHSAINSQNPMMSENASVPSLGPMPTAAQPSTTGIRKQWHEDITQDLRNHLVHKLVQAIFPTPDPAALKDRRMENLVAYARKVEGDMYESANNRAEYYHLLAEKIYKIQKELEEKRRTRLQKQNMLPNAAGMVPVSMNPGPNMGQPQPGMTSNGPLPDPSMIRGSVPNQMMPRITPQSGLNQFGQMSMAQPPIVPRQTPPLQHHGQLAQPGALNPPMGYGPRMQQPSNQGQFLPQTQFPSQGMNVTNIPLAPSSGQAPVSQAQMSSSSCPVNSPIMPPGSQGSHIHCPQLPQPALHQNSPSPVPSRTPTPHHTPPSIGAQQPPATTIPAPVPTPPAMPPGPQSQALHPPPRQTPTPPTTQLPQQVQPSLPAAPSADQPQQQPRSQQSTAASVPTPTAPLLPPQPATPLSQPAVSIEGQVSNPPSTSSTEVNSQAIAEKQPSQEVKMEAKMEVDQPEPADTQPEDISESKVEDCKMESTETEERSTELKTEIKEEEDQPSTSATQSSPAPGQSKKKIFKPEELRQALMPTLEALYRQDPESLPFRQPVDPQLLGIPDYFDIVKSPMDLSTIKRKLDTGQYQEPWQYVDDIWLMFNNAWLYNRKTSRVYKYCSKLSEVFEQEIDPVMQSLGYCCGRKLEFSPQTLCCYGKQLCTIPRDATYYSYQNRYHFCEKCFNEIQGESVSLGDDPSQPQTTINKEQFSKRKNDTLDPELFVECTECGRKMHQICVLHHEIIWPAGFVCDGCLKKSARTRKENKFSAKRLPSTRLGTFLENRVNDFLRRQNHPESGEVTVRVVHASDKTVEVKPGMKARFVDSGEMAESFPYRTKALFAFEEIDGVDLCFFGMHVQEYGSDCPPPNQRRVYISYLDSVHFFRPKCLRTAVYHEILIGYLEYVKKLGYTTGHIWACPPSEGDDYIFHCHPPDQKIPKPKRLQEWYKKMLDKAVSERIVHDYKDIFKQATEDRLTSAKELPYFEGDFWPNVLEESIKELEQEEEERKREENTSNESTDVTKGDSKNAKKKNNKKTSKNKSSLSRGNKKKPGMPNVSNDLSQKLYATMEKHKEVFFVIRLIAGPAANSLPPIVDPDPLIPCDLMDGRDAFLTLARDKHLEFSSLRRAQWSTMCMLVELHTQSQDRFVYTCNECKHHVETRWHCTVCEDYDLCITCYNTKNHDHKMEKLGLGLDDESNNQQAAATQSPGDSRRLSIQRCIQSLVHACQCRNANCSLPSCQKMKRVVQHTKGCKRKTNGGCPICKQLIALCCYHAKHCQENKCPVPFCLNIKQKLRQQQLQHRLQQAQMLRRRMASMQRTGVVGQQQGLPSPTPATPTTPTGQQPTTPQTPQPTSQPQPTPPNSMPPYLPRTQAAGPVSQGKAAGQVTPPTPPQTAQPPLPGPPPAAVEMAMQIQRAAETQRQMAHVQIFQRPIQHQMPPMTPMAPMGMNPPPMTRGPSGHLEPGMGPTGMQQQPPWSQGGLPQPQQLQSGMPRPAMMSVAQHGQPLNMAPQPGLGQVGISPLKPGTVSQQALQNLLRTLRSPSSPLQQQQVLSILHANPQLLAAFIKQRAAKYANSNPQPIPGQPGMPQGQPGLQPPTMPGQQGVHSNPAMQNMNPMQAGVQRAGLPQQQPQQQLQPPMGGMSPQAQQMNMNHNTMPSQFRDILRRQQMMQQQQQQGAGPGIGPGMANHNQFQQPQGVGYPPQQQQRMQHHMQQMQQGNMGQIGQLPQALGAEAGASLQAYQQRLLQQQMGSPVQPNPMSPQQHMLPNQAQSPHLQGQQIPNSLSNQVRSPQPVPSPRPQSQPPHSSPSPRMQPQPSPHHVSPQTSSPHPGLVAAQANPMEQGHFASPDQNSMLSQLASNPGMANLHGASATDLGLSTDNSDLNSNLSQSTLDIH

Tests used:
[1] = biological target: Forkhead Box O3 (FOXO3) (human (endogenous in BT474)) (UniProt O43524); experiment: proximity ligation; Duolink in situ PLA with EP300 and FOXO3 antibodies in BT474 cells treated with 1 µM lapatinib for 0, 4 and 8 h; confocal microscopy
[2] = biological target: Forkhead Box O3 (FOXO3) (human (endogenous in BT474)) (UniProt O43524); experiment: condition: only in lapatinib-resistant BT474-LapR cells; proximity ligation; Duolink in situ PLA with EP300 and FOXO3 antibodies in lapatinib-resistant BT474-LapR cells treated with 1 µM lapatinib for 0, 4 and 8 h; confocal microscopy
[3] = biological target: wild-type EP300 (pcDNA3.1-p300) (human) (UniProt Q09472); experiment: co-IP; lysates of BT474 cells transiently transfected with EP300 or EP300 HAT mutant; IP with anti-EP300 antibody, blot for FOXO3 (Figure 4B, lower panel)
[4] = biological target: Forkhead Box O3 (FOXO3) (human (endogenous in BT474)) (UniProt O43524); experiment: co-IP; lysates of BT474 cells transiently transfected with EP300 or EP300 HAT mutant; IP with anti-FOXO3 antibody, blot for EP300 (Figure 4B, upper panel); IP lysis buffer 1% NP-40, 150 mM NaCl, 50 mM Tris-HCl pH 7.4, 5 mM EDTA; 4 °C overnight

EP300 (from UniProt Q09472 1-2414) (enzyme)
binding [1]: binds
binding [2]: no binding

Forkhead Box O3 (FOXO3) (from UniProt O43524 1-673)
binding [3]: binds

wild-type EP300 (pcDNA3.1-p300) (from UniProt Q09472 1-2414) (enzyme)
binding [4]: binds
